Values quoted from earlier work in patent US12576069B2, “Compositions and methods for treating slow-flow vascular malformations” (YALE UNIVERSITY, priority 2019, dated 2026).

Conditions: cited from earlier work

For `CO[C@H]1C[C@@H]2CC[C@@H](C)[C@@](O)(O2)C(=O)C(=O)N2CCCC[C@H]2C(=O)O[C@H]([C@H](C)C[C@@H]2CC[C@@H](O)[C@H](OC)C2)CC(=O)[C@H](C)/C=C(\C)[C@@H](O)[C@@H](OC)C(=O)[C@H](C)C[C@H](C)/C=C/C=C/C=C/1C` [rapamycin], the solubility in water is given as “insoluble in water”.
